# Some results were stated once for a whole list of compounds, not compound by compound. For at least one compound, name, drawing or mass did not settle the structure.
# Test system: C. albicans
# Experiment: minimum inhibitory concentration (MIC) assay against C. albicans
# Type: cell-based, Candida albicans
# Details: b11
# Protocol: To determine the ability of the cannabinoid compounds described herein to reduce, inhibit, or eliminate, C. albicans a minimum inhibitory concentration (“MIC”) assay was performed. […] The assay was performed by Charles River Laboratories International (Wilmington, Mass.) in accordance with industry standards.
row,Molecule,minimum inhibitory concentration (MIC) against C. albicans
1,"CCCc1cc(O)c(C/C=C(\C)CCC=C(C)C)c(O)c1 [CBGV, cannabigerivarin]",≤ 200 82 g/mL
2,"C=C(C)[C@@H]1CCC(C)=C[C@H]1c1c(O)cc(CC)cc1O [CBD-C2, cannabidol-C2]",≤ 200 82 g/mL
3,"C=C(C)[C@@H]1CCC(C)=C[C@H]1c1c(O)cc(CCC)cc1O [CBDV, cannabidivarin]",≤ 200 82 g/mL
4,"C=C(C)[C@@H]1CCC(C)=C[C@H]1c1c(O)cc(CCCC)cc1O [CBD-C4, cannabidol-C4]",≤ 200 82 g/mL
5,"CCCCc1cc(O)c(CC=C(C)CCC=C(C)C)c(O)c1 [CBG-C4, cannabigerol butyl]",≤ 200 82 g/mL
6,"C=C(C)[C@@H]1CCC(C)=C[C@H]1c1c(O)cc(CCCCC)cc1O [CBD, cannabidol]",≤ 200 82 g/mL
7,"C=C(C)[C@@H]1CCC(C)=C[C@H]1c1c(O)cc(C)cc1O [CBD-C1, cannabidiorcol]",≤ 200 82 g/mL

# Same assay, conditions: growth inhibition of C. albicans; assay performed by Charles River Laboratories
row,Molecule,MIC [mg/L]
1,"CCCc1cc(O)c(C/C=C(\C)CCC=C(C)C)c(O)c1C(=O)O [CBGVA, cannabigerovarinic acid]",> 200
2,"C=C(C)[C@@H]1CCC(C)=C[C@H]1c1c(O)cc(CCC)c(C(=O)O)c1O [CBDVA, cannabidivarinic acid]",> 200
3,(+)-cannabidiol [(+)-CBD],> 200
4,"CCCCc1cc(O)c(C/C=C(\C)CCC=C(C)C)c(O)c1C(=O)O [CBGA-C4, cannabigerolic acid butyl]",> 200
5,"CCCCCc1cc2c(c(O)c1C(=O)O)C1C3C(CCC3(C)O2)C1(C)C (centres unmarked) [CBLA, cannabicyclolic acid]",> 200
6,"CCCCCc1cc2c(c(O)c1C(=O)O)-c1cc(C)ccc1C(C)(C)O2 [CBNA, cannabinolic acid]",> 200
7,"CCCCCc1cc2c(c(O)c1C(=O)O)C=CC(C)(CCC=C(C)C)O2 (centres unmarked) [CBCA, cannabichromenic acid]",> 200
